# PubChem BioAssay AID651768 (National Center for Advancing Translational Sciences (NCATS), 2012)
# Amino acid sequences for entries named in this document (tags omitted).
# UniProt Q14191, whole entry, looked up: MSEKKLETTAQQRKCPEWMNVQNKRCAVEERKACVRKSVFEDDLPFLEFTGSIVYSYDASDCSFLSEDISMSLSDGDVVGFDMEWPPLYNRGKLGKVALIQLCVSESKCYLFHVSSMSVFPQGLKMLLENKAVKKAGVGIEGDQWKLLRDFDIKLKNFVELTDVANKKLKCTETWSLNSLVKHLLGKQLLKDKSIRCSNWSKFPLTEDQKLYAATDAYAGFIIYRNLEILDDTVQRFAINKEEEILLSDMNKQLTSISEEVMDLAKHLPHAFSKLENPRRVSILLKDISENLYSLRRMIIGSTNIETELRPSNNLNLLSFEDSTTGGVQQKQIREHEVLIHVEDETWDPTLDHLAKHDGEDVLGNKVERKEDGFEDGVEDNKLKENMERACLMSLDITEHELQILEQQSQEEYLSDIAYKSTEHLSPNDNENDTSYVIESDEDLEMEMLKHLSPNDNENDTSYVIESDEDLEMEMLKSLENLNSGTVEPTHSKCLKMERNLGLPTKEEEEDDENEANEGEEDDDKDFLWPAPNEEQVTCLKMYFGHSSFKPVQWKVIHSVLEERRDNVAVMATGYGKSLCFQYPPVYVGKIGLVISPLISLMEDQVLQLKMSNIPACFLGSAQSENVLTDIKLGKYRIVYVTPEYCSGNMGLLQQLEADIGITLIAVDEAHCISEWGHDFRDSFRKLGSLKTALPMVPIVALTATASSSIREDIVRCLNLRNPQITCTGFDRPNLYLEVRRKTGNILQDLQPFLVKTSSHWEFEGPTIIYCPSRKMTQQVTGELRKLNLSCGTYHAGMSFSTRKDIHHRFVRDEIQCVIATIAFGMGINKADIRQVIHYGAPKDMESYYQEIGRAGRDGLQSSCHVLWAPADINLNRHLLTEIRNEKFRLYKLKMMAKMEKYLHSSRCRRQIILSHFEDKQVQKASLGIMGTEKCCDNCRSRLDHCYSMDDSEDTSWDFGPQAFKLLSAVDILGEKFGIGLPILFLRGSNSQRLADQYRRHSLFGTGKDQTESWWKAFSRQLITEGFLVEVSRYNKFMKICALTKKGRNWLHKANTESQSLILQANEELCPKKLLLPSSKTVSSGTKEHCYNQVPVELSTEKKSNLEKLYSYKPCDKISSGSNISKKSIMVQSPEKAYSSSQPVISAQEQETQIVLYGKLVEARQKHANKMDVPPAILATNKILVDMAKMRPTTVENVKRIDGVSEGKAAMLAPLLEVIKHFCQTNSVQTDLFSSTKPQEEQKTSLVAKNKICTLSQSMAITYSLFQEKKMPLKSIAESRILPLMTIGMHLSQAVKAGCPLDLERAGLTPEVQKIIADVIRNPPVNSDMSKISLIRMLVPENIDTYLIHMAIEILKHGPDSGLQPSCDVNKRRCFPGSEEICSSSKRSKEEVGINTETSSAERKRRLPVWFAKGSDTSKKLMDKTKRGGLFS
# Screen size: about 360,000 compounds; about 1,700 (0.47%) were called active. This list was built around the results that the source calls inconclusive (neither active nor inactive); the mix of calls is not that of the screen. Calls follow the shape of the dose curve; as a rule, active = well fitted inhibition curve with a large enough effect; inconclusive = small, poorly fitted or top-dose-only effect; inactive = no such curve, though single readings can be large or run the other way. Potencies beside an inconclusive call are fits to weak or partial responses and may not hold up.
# Target: Bifunctional 3'-5' exonuclease/ATP-dependent helicase WRN (Homo sapiens) (UniProt Q14191)
# Test: qHTS for Inhibitors of WRN Helicase; also: nearly all actives have a fitted effect of over 55% in size
# Details: WRN helicase unwinding, fluorescent forked duplex, kinetic; activity change, negative = inhibition: at 114 µM (top of the series) unless noted
# How it was run: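 Kinetic fluorescence helicase assay: unwinding of a quenched forked DNA duplex (100 nM final) with 2 mM ATP final raises red fluorescence (525/598 nm). Compounds sat 15 min at room temperature with 20 nM WRN beforehand.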
# % is scaled to controls: 0 for no effect and ±100 for the full control effect; potency is read from the fitted curve at half-maximal effect.
Compound,"activity change, negative = inhibition",Potency
CCOc1ccc(NC(=O)C(C)C(Cc2ccc(C)cc2)C(=O)O)cc1 (stereo not given),inactive: 0.41%,
CC/C=C\C/C=C\C/C=C\CCCCCCCC(=O)O,,active: 17.8 µM
CCCn1nc2cc(C(=O)NCc3ccccc3OC)ccc2c1OCC,,"inconclusive: 70.8 µM [inhibitor, partial curve]"
CCCCCCNC(=O)CCCCCNS(=O)(=O)c1ccc(OC)cc1,inactive: -20.2%,
COCC(=O)Nc1ccc([N+](=O)[O-])cc1OC,inactive: 9.2%,
CCCc1nc2oc(C(=O)OCC)c(N)c2c2c1COC(C)(C)C2,inactive: 4.68%,
CCCCC1CC(=O)NC1(C(=O)OCC)C(=O)OCC (stereo not given),,"inconclusive: 22.4 µM [inhibitor, full curve, poor fit]"
O=C(CCC1CCCN(C(=O)c2ccc(F)c(F)c2)C1)N1CCN(c2ccccn2)CC1 (stereo not given),,"inconclusive: 44.7 µM [inhibitor, partial curve]"
Cc1cccc(N2CCN(C(=O)Cc3ccc(-n4c(=O)[nH]c5ccsc5c4=O)cc3)CC2C)c1 (stereo not given),inactive: -5.52%,
Cc1ccc(Cl)c(NC(=O)COC(=O)CNS(=O)(=O)/C=C/c2ccccc2)c1Cl,,"inconclusive: 39.8 µM [inhibitor, single point]"
CCOC(=O)c1cnc(-n2nc(C)cc2C)nc1Nc1ccc(C)cc1,inactive: -4.7%,
CCc1ccccc1NC(=O)CNC(=O)CCc1nc2sc3c(c2c(=O)[nH]1)CCCC3,,"inconclusive: 50.1 µM [inhibitor, partial curve]"
COc1ccccc1NC(=S)N(Cc1ccco1)Cc1cc2cccc(C)c2[nH]c1=O,inactive: -5.53%,
COc1ccccc1NS(=O)(=O)c1cc(NC(=O)c2ccncc2)ccc1N1CCCC1,,"inconclusive: 79.4 µM [inhibitor, partial curve]"
Cc1[nH]c2ccccc2c1/C=C/C(=O)c1ccccc1,,"inconclusive: 12.6 µM [inhibitor, single point]"
CCOC(=O)/C(=C\c1ccc(N2CCC(c3ccccc3)=N2)cc1)C(C)=O,,"inconclusive: 50.1 µM [inhibitor, partial curve]"
CCOC(=O)C1=C(C)N=c2sc(=Cc3cc(Cl)c(OCC(=O)O)c(Cl)c3)c(=O)n2C1c1cccc(OC)c1 (stereo not given),,active: 79.4 µM
CCCCc1nnc(NC(=O)c2ccc(OCc3c(C)noc3C)cc2)s1,,"inconclusive: 39.8 µM [inhibitor, partial curve, poor fit]"
CC(C)[C@@H]1O[C@H](CCc2ccccc2)CC2=C1C(=O)OC(C)(C)O2,inactive: -3.7%,
Cc1cccc2c(C(=O)N3CCN(C(=O)c4ccco4)CC3)cc(-c3cccc(Br)c3)nc12,,"inconclusive: 79.4 µM [inhibitor, single point]"
C#CCOCCOCCOCCNc1nc(N2CCN(C(=O)CCCCCCCCCCNC(=O)Cn3cc(CCCCCN)nn3)CC2)nc(N2CCN(C(=O)CCCCCCCCCCNC(=O)Cn3cc(C[C@@H](C)O)nn3)CC2)n1,,active: 25.1 µM
COc1cccc(NC(=O)CN(C)C(=O)c2cc3c(s2)CCC3)c1,,"inconclusive: 56.2 µM [inhibitor, partial curve]"
CCc1ccc(N=C2NC(=O)/C(=C/c3ccc(OCC(=O)O)cc3)S2)cc1,,"inconclusive: 2.12 µM [inhibitor, partial curve]"
C/C(=N\OC(=O)c1cccc(Cl)c1)c1sc(C)nc1C,inconclusive: -36.6% [inhibitor] [at 57.1 µM],

# Part of the list above, set out differently:
Compound | activity change, negative = inhibition | Potency
CCCCC1CC(=O)NC1(C(=O)OCC)C(=O)OCC (stereo not given) |  | inconclusive: 22.4 µM [inhibitor, full curve, poor fit]
COc1ccccc1NC(=S)N(Cc1ccco1)Cc1cc2cccc(C)c2[nH]c1=O | inactive: -5.53% | 
CCOC(=O)/C(=C\c1ccc(N2CCC(c3ccccc3)=N2)cc1)C(C)=O |  | inconclusive: 50.1 µM [inhibitor, partial curve]
CCOC(=O)C1=C(C)N=c2sc(=Cc3cc(Cl)c(OCC(=O)O)c(Cl)c3)c(=O)n2C1c1cccc(OC)c1 (stereo not given) |  | active: 79.4 µM
Cc1cccc2c(C(=O)N3CCN(C(=O)c4ccco4)CC3)cc(-c3cccc(Br)c3)nc12 |  | inconclusive: 79.4 µM [inhibitor, single point]
CCc1ccc(N=C2NC(=O)/C(=C/c3ccc(OCC(=O)O)cc3)S2)cc1 |  | inconclusive: 2.12 µM [inhibitor, partial curve]

# (continued)

Compound,"activity change, negative = inhibition",Potency
Cc1cc(Nc2ccc(N3CCOCC3)cc2)c2cccc(C)c2n1,,"inconclusive: 11.2 µM [inhibitor, full curve]"
Oc1ccc2ccccc2c1C=NC12CN3CCN(CN(C3)C1)C2,,"inconclusive: 35.5 µM [inhibitor, partial curve, poor fit]"
Cc1ccc(C)c(Cn2nnc3c(=O)[nH]c(C(=O)NCc4ccco4)nc32)c1,,"inconclusive: 21.2 µM [inhibitor, partial curve]"
Cc1sc(-n2c(C)cc(/C=C3\SC(=S)NC3=O)c2C)c(C#N)c1C,,active: 56.2 µM
Cc1cc(N2CCN(c3nc(-c4ccccc4)cs3)CC2)c2ccccc2n1,inactive: 5.32%,
CCCc1cc(=O)oc2cc(OCC(=O)Nc3ccc(S(N)(=O)=O)cc3)ccc12,,"inconclusive: 63.1 µM [inhibitor, partial curve, poor fit]"
CC(Cl)=CCn1c(NCCc2ccccc2)nc2c1c(=O)n(C)c(=O)n2C,inactive: 0.519%,
CC1=C(C#N)C(=O)NC(=O)/C1=C\c1ccc(-c2ccc(C)cc2[N+](=O)[O-])o1,,"inconclusive: 39.8 µM [inhibitor, single point]"
COC(=O)c1ccc2c(c1)C(C)(C)C(/C=C/c1ccccc1O)=[N+]2C,,active: 56.2 µM
CN1CCN(c2ccc(-c3cc(NC=O)c4ncc(-c5ccccc5)n4c3)cc2)CC1,,"inconclusive: 35.5 µM [inhibitor, single point]"
COc1ccc(C(=O)CN2C(=O)c3ccccc3S2(=O)=O)cc1Br,,"inconclusive: 79.4 µM [inhibitor, single point]"
O=C(NCc1ccco1)c1sc(=S)n2c1[nH]c(=O)c1ccccc12,,"inconclusive: 50.1 µM [inhibitor, partial curve]"
Cc1ccc(CN2CCCN(C)CC2)c(C)c1,,"inconclusive: 50.1 µM [inhibitor, partial curve]"
CC1CCN(S(=O)(=O)c2cccc(C(=O)N3CCN(c4ccc(F)cc4)CC3)c2)CC1,,"inconclusive: 44.7 µM [inhibitor, full curve, poor fit]"
N#Cc1cccc(NC(=O)CSc2sc3c(O)cc(=O)[nH]c3c2C#N)c1,,"inconclusive: 10 µM [inhibitor, full curve]"
CCOc1ccc(CN(C)C(=O)c2cccc(S(=O)(=O)N3CCCC3)c2)cc1OC,inactive: -5.5%,
Cc1ccc(-c2cc(C(=O)N3CCOCC3)c3ccccc3n2)o1,inactive: 3.59%,
COC(=O)CSC1=NS(=O)(=O)c2ccccc21,,"inconclusive: 39.8 µM [inhibitor, partial curve]"
O=C(N/N=C/c1ccncc1)c1cccc(S(=O)(=O)Nc2ccc(Cl)cc2)c1,,active: 22.4 µM
COc1ccccc1C(=O)COC(=O)c1cc([N+](=O)[O-])ccc1N1CCOCC1,inactive: 0.43%,
O=S(=O)(c1ccc(-c2n[nH]c(=S)o2)cc1)N1CCCC1,inactive: -19.9%,
CC1(C(=O)O)CCCN1C(=O)c1ccc(Cl)cc1Cl (stereo not given),inactive: -8.29%,
Cc1ccc2[nH]c(=O)cc(C(=O)OCC(=O)c3ccccc3)c2c1,,"inconclusive: 28.2 µM [inhibitor, single point]"
O=C(Nc1ccc(-n2nncc2-c2ccco2)cc1)c1cc2ccccc2oc1=O,,active: 50.1 µM

Compound,"activity change, negative = inhibition",Potency
O=S(=O)(Cc1ccccc1)N1CCN(Cc2ccc(Br)cc2)CC1,,"inconclusive: 70.8 µM [inhibitor, single point]"
Cc1cc2[nH]c(=O)c(=O)[nH]c2cc1S(=O)(=O)Nc1cccc(Cl)c1,,"inconclusive: 50.1 µM [inhibitor, partial curve]"
O=C(/C=C/c1ccco1)c1ccc(NC(=O)C23CC4CC(CC(C4)C2)C3)cc1,,"inconclusive: 56.2 µM [inhibitor, partial curve, poor fit]"
Nn1cnnc1N/N=C/c1ccccc1C(F)(F)F,inactive: 10.4%,
COc1ccc(CNC(=O)COC(=O)C(CCSC)NC(=O)c2ccco2)cc1OC (stereo not given),inactive: 13%,
C=CCn1c(SCC(C)=O)nc2scc(-c3ccco3)c2c1=O,,"inconclusive: 50.1 µM [inhibitor, partial curve]"
Cc1cc(=O)oc2c(CN3CCC(C)CC3)c(O)c(Cl)cc12,,"inconclusive: 56.2 µM [inhibitor, partial curve, poor fit]"
Oc1c(N=Nc2ccccn2)ccc2ccccc12,,active: 56.2 µM
Cc1ccc2oc(=O)c(/C=C(\O)c3ccco3)nc2c1,inactive: 1.25%,
O=c1[nH][nH]c(-c2ccccc2O)c1C(C[N+](=O)[O-])c1ccc(Br)cc1 (stereo not given),,"inconclusive: 10 µM [inhibitor, partial curve]"
COc1ccc(OC)c(Nc2nc(NCc3ccco3)c3ccccc3n2)c1,,"inconclusive: 50.1 µM [inhibitor, partial curve]"
Cc1sc2nc3n(c(=O)c2c1C)CCCS3,inactive: -2.82%,
C=CCn1c(COc2ccc(F)cc2)nnc1SCC(=O)NC1CCCC1,inactive: 3.09%,
COc1ccc(Cc2nnc(NC(=O)Cc3cccs3)s2)cc1,,"inconclusive: 6.7 µM [inhibitor, partial curve]"
O=C(Cc1n[nH]c(=O)[nH]c1=O)N/N=C/c1c(O)ccc2ccccc12,,"inconclusive: 31.6 µM [inhibitor, single point]"
COc1ccc(Cl)c(Cn2c(NCc3ccco3)nc3c2c(=O)n(C)c(=O)n3C)c1,,"inconclusive: 56.2 µM [inhibitor, partial curve]"
O=C1NC(=Nc2ccccc2)SC1(CO)CO,,"inconclusive: 89.1 µM [inhibitor, single point]"
COc1ccc(S(=O)(=O)N2CCN(C(=O)C3COc4ccccc4O3)CC2)cc1 (stereo not given),,active: 50.1 µM
O=C(O)c1ccc(Nc2nc(-c3cc4ccccc4oc3=O)cs2)cc1O,,"inconclusive: 31.6 µM [inhibitor, single point]"
O=C(NNc1ccccc1)Nc1ccccc1F,,"inconclusive: 89.1 µM [inhibitor, single point]"
C=CCN1C(=O)/C(=c2\sc3nc(=O)c(Cc4ccccc4Cl)nn3c2=O)c2ccccc21,,"inconclusive: 28.2 µM [inhibitor, partial curve]"
CCCOc1c(Br)cc(C(=O)OCc2cc(=O)n3ccsc3n2)cc1OC,inactive: 5.57%,
